# Assay results as given in PubChem BioAssay AID493014 (National Center for Advancing Translational Sciences (NCATS), 2011).
# This is one part of the list. Shown are side measurements of this screen, not its main read-out; they come without a call. Most of these compounds were active or inconclusive in the main read-out, so they are no random draw. Words in brackets tell the shape of the fitted curve; partial curves, single points and poor fits give uncertain potencies.
# Experiment: qHTS Assay to Find Inhibitors of Chronic Active B-Cell Receptor Signaling
# Settings: ABC-DLBCL IkBa-CBG/CBR reporter, luminescence ratio (green luciferase fused to IkBa over red control in TMD8 lymphoma cells), 4 h
# Method in brief: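 TMD8 human ABC-DLBCL cells with doxycycline-inducible IκBα–green luciferase fusion and unfused red luciferase, in 0.5% FBS medium; compounds up to 46 uM, 4 h at 37C. Green/red luminescence ratio, filter-overlap corrected, fitted to concentration-response curves.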
# [1] = measured here: CBR red luminescence, cell number
SMILES,AC50 [1],AC50 (measured here: IkBa-CBG green luminescence)
COc1ccc(C(=O)/C=C/c2cn(CC(O)CN3CCN(C)CC3)c3ccccc23)cc1OC (stereo not drawn),"15.8 µM [falling, single point]",–
N#Cc1ccc(CN2CCN(C(=O)CNS(=O)(=O)c3ccc4c(c3)OCCCO4)CC2)cc1,"0.103 µM [falling, full curve, poor fit]",–
O=C(Nc1cccc(C(F)(F)F)c1)C1CCCCC1,"7.31 µM [rising, partial curve, poor fit]",–
Cc1ccc(N/C=C(\C#N)c2ccc(OCCCF)cc2)cc1,"0.651 µM [rising, full curve, poor fit]",–
COc1ccc(NC(=O)CCc2c(C)nc3nc(C)nn3c2C)cc1,"6.31 µM [rising, single point]",–
Cc1c(Cl)cnc(NC(=O)COC(=O)CCC(=O)c2cccs2)c1Cl,"0.164 µM [rising, full curve, poor fit]",–
NC(=S)N/N=C1\CC(c2ccc3c(c2)OCCCO3)Oc2ccc(F)cc21 (stereo not drawn),–,"10 µM [falling, partial curve]"
CCN(Cc1ccccc1)C(=O)c1cc(COc2c(F)cccc2F)on1,"1.12 µM [rising, partial curve]",–
O=C1c2ccccc2C(=O)N1CCSc1n[nH]c(=S)s1,"16.4 µM [rising, partial curve, poor fit]",–
CSc1ccc(/C=N/NC(=O)c2cccs2)cc1,"3.55 µM [falling, full curve, poor fit]",–
COc1ccc2c(c1)OC[C@H]1[C@H]2N2C(=O)CN(Cc3ccco3)C(=O)[C@@]2(C)[C@H]1c1ccccc1,"20.6 µM [falling, partial curve, poor fit]",–
O=C(CSc1nnc2c3ccccc3c3ccccc3c2n1)Nc1ccccc1,"2 µM [falling, full curve, poor fit]",–
Oc1csc(Cc2nc(-c3ccc(Br)cc3)cs2)n1,"2.51 µM [rising, full curve]",–
Cc1ccccc1C(=O)NN1C(=O)CSC1=S,"0.231 µM [falling, full curve]",–
Fc1cc(F)cc(Nc2nc(Cl)nc(NC3CCCC3)n2)c1,"20.6 µM [falling, partial curve]",–
CCNC(=S)N(CCc1c(C)[nH]c2ccc(C)cc12)Cc1ccco1,"23.1 µM [falling, partial curve, poor fit]",–
Fc1ccc(-n2cc(-c3ccccc3)c3c(NC4CCCCC4)ncnc32)cc1,"5.62 µM [rising, full curve, poor fit]",–
O=C1C2C3C=CC(C3)C2C(=O)N1c1ccc2ccccc2n1 (stereo not drawn),"20.6 µM [rising, partial curve, poor fit]",–

# Reformatted: 2 of the compounds above.
SMILES | AC50 [1] | AC50 (measured here: IkBa-CBG green luminescence)
CCNC(=S)N(CCc1c(C)[nH]c2ccc(C)cc12)Cc1ccco1 | 23.1 µM [falling, partial curve, poor fit] | –
Fc1ccc(-n2cc(-c3ccccc3)c3c(NC4CCCCC4)ncnc32)cc1 | 5.62 µM [rising, full curve, poor fit] | –
